From US20240182538A1
Results are given in words; binding and its absence hold for the method and conditions named. Binding seen in cells or lysates may run through a third protein. Some results given as binding are weak or reduced against the parent protein; the word gives no strength.

Sequences of proteins named here, by UniProt entry; tags and fusion partners are left off. A change or cut given only in a name is not applied to a line headed by its entry.
UniProt Q16666: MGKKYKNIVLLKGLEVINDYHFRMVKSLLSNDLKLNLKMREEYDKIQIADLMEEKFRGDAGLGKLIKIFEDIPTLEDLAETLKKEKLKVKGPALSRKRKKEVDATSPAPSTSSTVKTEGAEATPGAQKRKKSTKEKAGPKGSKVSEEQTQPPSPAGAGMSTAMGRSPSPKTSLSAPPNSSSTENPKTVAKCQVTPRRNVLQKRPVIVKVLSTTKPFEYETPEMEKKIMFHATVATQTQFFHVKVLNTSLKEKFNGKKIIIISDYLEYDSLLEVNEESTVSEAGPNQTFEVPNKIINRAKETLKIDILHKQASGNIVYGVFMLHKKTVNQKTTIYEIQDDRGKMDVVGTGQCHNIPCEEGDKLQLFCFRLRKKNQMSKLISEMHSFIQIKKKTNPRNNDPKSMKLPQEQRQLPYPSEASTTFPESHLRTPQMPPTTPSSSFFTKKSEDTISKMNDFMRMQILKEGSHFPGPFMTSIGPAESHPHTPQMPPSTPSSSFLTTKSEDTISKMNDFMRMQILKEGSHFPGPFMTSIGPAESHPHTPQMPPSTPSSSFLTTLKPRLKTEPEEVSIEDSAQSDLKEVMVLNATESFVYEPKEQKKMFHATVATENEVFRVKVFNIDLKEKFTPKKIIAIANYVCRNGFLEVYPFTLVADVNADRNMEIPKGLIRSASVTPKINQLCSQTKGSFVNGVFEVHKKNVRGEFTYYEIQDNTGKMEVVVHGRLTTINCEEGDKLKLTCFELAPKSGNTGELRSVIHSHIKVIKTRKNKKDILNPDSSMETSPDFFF

Key:
[1] = biological target: T1, human TANK-binding kinase 1 (TBK1), endogenous in THP-1 cells and primary human MDMs (human) (UniProt Q9UHD2); test: co-IP with anti-IFI16 from cytosolic extracts of unstimulated THP1 cells, immunoblot (FIG. 4a, lane 4)
T1 sequence: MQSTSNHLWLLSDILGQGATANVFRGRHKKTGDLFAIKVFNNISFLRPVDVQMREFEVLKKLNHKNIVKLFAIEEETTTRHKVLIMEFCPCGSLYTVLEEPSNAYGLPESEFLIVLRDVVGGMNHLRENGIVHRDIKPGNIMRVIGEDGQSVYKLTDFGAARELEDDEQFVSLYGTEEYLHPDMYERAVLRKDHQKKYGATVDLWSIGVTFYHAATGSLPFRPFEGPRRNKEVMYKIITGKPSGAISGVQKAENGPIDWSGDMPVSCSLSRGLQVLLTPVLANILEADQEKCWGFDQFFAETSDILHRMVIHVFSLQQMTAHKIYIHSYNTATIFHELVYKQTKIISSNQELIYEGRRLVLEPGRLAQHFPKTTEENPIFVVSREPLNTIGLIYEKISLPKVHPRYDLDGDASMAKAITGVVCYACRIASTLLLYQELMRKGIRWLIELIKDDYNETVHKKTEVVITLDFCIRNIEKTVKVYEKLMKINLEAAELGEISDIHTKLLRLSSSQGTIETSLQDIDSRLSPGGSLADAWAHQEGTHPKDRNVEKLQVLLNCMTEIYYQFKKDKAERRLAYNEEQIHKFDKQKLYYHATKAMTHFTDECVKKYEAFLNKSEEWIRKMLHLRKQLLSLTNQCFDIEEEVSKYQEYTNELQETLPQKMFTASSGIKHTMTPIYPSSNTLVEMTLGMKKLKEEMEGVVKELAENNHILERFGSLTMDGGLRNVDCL

[2] = biological target: T1, human TANK-binding kinase 1 (TBK1), endogenous in THP-1 cells and primary human MDMs (human); test: summary of co-IP experiments (FIG. 4)
[3] = biological target: T2, phosphorylated human TBK1, endogenous in THP-1 cells (human) (UniProt Q9UHD2); test: co-IP with anti-IFI16 from cytosolic extracts of dsDNA-stimulated THP1 cells, immunoblot (FIG. 4a, lane 5-6)
T2 sequence (chain, phosphorylated (site not printed; detected with anti-phospho-TBK1 antibody)): T1 sequence

[4] = biological target: T1, human TANK-binding kinase 1 (TBK1), endogenous in THP-1 cells and primary human MDMs (human); test: co-IP with anti-IFI16 from STING KO THP1 cells, immunoblot (FIG. 4d)

Measured: binding

human IFI16 (Interferon-gamma-inducible protein 16), endogenous in THP-1 cells and primary human MDMs (from UniProt Q16666 1-785)
binds: all assays above
